PubChem BioAssay AID743454 – Peter MacCallum Cancer Centre, 2014
The whole screen tested about 18,000 reagents; shown is an unselected part. 450 of them (2.5%) count as active. 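Single biological run; no consistent viability z cut-off exists, so the class columns, not z-scores, define the calls.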 Unmarked entries are inactive. Reagents against one gene are numbered here. No sequences are given here.

- Purpose: 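Knock-downs lowering viability or raising caspase 3/7 activity in vorinostat-treated resistant cells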 (primary screen)
- System: human HCT116-VR colon cancer cells, selected for vorinostat resistance
- Knock-down reagent: siRNA pool against human genes, 40 nM siRNA pool
- Time to read-out: vorinostat for 24 h, read-out about 72 h after transfection
- Challenge: vorinostat at 2.5 µM final
- Read-out: 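Cell viability by CellTiter-Fluor and caspase 3/7 activity by luminescence, each scaled to mock wells per plate, duplicates averaged, then robust z-scored over all plates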
- Reading the numbers: viability robust z-score: higher = more viable cells than screen typical; caspase robust z-score: higher = more caspase 3/7 activity than screen typical
- Rule for the call: 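Hits are knock-downs in viability class RV1/RV2 or caspase class CA1/CA2, excluding ones that killed cells in the no-drug cell-count arm; hits then retested with single siRNAs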

For PMP22, the values are viability hit class no change; caspase hit class no change; viability robust z-score -0.13; caspase robust z-score -0.75. Silencing of CASP4 resulted in: viability hit class no change; caspase hit class no change; viability robust z-score 1.12; caspase robust z-score 1.62. Depletion of PRKACG came out at: viability hit class no change; caspase hit class no change; viability robust z-score 0.6; caspase robust z-score -0.12. LRFN5 scored viability hit class no change; caspase hit class no change; viability robust z-score -0.1; caspase robust z-score 0.26. Knock-down of FCSK came out at: viability hit class no change; caspase hit class no change; viability robust z-score -1.48; caspase robust z-score -0.03. Depletion of AXDND1 gave: viability hit class no change; caspase hit class no change; viability robust z-score -0.2; caspase robust z-score -0.42.

Silencing of SCRT1 gave: viability hit class no change; caspase hit class no change; viability robust z-score -1.99; caspase robust z-score 3.14. For GARIN3 the deposit lists viability hit class no change; caspase hit class no change; viability robust z-score -1.3; caspase robust z-score 1.34. Knock-down of WT1-AS came out at: viability hit class no change; caspase hit class no change; viability robust z-score 1.34; caspase robust z-score -0.17. SP110 gave viability hit class no change; caspase hit class no change; viability robust z-score -0.82; caspase robust z-score -0.54. Knock-down of AGAP4 #1 gave: viability hit class no change; caspase hit class no change; viability robust z-score -0.74; caspase robust z-score 0.66. AGAP4 #2 scored viability hit class no change; caspase hit class no change; viability robust z-score 1.4; caspase robust z-score -0.79.

With knock-down of NFATC2 the results were viability hit class no change; caspase hit class no change; viability robust z-score 0.52; caspase robust z-score -0.31. Depletion of ELL3 gave: viability hit class no change; caspase hit class no change; viability robust z-score 0.57; caspase robust z-score -0.24. With knock-down of MDFI the results were viability hit class no change; caspase hit class no change; viability robust z-score 1.23; caspase robust z-score 0. Depletion of GABRA4 resulted in: viability hit class no change; caspase hit class no change; viability robust z-score -0.38; caspase robust z-score 3.4. Against RNPS1, the values are viability hit class no change; caspase hit class no change; viability robust z-score -3.6; caspase robust z-score 4.07. With knock-down of PRR23B, the record shows viability hit class no change; caspase hit class no change; viability robust z-score 0.42; caspase robust z-score -0.9.

For PRKG1 the deposit lists viability hit class no change; caspase hit class no change; viability robust z-score 0.75; caspase robust z-score -0.56. For AMFR the deposit lists viability hit class no change; caspase hit class no change; viability robust z-score 0.32; caspase robust z-score 5.12. Knock-down of SERPINB10 gave: viability hit class no change; caspase hit class no change; viability robust z-score -0.45; caspase robust z-score -0.65. For TMBIM6, the values are viability hit class no change; caspase hit class no change; viability robust z-score 0.92; caspase robust z-score -0.21. Knock-down of LCMT1 came out at: viability hit class no change; caspase hit class no change; viability robust z-score -0.17; caspase robust z-score -0.58. VGLL4 scored viability hit class no change; caspase hit class no change; viability robust z-score 0.46; caspase robust z-score -0.39.

ENTPD4 gave viability hit class no change; caspase hit class no change; viability robust z-score -0.19; caspase robust z-score -0.04. After knock-down of SCN9A the results were viability hit class no change; caspase hit class no change; viability robust z-score -1.88; caspase robust z-score -0.78. Against UBE2C, the entry reads viability hit class no change; caspase hit class no change; viability robust z-score 0.3; caspase robust z-score 0.28.
